Test results from the supplement of paper PMC10849652.
Some of the results follow.

Amino acid sequences for entries named in this document (tags omitted). A change or cut given only in a name is not applied to a line headed by its entry.
UniProt Q9UID6: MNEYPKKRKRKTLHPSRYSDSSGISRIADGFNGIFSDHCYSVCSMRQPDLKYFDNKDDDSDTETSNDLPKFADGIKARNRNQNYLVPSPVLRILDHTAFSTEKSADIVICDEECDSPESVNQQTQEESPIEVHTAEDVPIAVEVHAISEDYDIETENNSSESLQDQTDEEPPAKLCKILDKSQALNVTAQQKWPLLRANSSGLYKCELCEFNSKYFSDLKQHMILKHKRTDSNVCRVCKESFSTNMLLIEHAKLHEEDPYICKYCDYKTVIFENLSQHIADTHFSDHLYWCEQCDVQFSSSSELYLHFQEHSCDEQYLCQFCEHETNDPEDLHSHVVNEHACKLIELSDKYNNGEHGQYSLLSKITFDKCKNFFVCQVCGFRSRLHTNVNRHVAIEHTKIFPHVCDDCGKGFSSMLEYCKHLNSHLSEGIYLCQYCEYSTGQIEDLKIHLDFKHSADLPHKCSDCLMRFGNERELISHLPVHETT
UniProt Q8IYB9: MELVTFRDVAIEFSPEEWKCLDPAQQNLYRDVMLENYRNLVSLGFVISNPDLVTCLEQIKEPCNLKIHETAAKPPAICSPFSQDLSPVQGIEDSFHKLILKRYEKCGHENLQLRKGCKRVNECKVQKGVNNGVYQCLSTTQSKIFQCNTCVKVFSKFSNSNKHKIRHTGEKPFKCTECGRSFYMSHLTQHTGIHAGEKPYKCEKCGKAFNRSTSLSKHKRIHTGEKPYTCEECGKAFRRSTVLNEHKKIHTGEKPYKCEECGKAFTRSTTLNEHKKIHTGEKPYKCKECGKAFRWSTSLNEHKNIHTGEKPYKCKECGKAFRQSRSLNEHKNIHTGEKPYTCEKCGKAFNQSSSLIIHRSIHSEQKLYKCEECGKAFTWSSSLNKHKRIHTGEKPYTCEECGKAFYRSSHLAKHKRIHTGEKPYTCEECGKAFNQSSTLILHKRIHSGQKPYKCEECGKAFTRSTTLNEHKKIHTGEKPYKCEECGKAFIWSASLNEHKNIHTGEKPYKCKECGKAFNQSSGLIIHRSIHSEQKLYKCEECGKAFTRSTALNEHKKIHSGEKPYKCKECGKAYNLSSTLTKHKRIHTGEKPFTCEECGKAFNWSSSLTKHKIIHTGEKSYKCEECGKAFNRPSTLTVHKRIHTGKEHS
UniProt Q5BKZ1: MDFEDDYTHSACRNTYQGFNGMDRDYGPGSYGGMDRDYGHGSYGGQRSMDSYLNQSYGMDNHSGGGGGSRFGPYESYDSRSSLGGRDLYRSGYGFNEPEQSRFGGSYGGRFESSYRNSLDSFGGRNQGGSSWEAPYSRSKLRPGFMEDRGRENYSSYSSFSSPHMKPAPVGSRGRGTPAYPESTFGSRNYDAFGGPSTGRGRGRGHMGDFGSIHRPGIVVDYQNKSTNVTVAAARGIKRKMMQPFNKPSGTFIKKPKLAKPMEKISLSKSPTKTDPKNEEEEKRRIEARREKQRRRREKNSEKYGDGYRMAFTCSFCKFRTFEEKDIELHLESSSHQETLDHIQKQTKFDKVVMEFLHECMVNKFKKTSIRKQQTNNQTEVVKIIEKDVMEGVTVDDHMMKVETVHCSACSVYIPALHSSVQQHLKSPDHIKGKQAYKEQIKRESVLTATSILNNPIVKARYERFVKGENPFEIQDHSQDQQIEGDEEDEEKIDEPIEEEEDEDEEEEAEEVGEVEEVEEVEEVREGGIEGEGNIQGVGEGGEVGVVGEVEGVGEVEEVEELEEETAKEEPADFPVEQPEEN
UniProt Q8N720: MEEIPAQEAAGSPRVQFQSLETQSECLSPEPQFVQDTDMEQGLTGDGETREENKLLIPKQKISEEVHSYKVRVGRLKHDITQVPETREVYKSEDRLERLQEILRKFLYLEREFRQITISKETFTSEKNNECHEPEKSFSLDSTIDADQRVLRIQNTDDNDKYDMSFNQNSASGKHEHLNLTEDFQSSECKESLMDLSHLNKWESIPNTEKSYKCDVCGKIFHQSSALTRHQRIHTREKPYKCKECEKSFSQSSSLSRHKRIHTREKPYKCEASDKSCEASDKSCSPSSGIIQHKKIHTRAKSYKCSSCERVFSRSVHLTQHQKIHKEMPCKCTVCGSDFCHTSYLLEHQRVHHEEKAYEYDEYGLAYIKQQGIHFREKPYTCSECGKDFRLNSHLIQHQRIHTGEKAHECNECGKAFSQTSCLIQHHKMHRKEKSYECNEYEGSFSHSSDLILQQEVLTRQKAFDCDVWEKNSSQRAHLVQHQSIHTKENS
UniProt Q15935: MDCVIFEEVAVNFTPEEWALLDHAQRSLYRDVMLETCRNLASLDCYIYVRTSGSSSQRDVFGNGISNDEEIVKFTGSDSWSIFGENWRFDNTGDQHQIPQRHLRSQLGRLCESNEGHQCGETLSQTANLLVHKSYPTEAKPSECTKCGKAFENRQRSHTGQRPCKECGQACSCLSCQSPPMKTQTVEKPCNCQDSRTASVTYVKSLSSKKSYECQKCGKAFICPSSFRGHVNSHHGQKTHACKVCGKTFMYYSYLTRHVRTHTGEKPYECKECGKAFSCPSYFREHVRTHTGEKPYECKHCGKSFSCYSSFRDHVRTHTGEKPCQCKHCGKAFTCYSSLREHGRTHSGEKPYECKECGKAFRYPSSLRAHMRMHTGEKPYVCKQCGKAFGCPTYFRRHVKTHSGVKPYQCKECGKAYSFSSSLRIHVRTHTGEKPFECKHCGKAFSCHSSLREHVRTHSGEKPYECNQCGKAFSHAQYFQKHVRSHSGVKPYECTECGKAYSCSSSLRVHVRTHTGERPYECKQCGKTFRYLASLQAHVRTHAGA
UniProt P17098: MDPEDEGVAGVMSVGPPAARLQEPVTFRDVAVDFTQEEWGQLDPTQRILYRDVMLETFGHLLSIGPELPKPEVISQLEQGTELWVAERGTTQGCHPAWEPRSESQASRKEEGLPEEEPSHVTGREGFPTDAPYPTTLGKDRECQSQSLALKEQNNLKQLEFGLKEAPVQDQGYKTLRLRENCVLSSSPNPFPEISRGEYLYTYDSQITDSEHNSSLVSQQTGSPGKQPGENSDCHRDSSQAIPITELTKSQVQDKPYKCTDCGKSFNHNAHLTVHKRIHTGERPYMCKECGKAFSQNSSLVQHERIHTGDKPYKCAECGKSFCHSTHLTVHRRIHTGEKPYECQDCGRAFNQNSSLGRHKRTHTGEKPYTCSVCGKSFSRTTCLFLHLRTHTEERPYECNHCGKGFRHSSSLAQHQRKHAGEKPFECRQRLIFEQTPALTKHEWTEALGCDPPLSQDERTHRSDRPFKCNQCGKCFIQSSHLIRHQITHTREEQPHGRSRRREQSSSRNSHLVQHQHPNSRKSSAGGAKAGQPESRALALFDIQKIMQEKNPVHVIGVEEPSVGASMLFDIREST
UniProt Q2TB10: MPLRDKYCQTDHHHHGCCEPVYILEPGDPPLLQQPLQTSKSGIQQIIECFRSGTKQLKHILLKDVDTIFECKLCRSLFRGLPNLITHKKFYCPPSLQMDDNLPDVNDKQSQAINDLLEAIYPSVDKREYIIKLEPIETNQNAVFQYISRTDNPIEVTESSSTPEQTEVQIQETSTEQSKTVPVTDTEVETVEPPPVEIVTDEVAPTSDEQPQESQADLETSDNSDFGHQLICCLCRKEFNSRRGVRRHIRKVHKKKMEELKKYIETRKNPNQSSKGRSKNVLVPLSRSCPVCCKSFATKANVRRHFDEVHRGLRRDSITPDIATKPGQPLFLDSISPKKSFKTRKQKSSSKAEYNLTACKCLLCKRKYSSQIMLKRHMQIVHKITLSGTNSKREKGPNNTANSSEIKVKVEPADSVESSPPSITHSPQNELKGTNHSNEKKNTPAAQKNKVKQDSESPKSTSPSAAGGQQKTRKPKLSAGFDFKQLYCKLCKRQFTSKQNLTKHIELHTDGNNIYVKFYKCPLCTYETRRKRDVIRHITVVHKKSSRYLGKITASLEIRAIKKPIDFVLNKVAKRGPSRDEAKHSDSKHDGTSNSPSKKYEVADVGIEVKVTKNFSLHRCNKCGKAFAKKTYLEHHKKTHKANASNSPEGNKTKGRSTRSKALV
UniProt Q7L3S4: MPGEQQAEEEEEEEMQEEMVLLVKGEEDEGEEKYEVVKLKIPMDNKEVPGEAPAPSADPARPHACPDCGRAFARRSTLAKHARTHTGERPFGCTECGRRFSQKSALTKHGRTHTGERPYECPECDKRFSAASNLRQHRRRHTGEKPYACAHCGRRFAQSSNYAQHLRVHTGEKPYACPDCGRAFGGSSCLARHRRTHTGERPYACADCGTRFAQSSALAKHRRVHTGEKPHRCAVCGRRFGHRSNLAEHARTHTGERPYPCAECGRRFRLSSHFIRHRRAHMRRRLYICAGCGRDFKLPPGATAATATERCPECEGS
UniProt Q96K58: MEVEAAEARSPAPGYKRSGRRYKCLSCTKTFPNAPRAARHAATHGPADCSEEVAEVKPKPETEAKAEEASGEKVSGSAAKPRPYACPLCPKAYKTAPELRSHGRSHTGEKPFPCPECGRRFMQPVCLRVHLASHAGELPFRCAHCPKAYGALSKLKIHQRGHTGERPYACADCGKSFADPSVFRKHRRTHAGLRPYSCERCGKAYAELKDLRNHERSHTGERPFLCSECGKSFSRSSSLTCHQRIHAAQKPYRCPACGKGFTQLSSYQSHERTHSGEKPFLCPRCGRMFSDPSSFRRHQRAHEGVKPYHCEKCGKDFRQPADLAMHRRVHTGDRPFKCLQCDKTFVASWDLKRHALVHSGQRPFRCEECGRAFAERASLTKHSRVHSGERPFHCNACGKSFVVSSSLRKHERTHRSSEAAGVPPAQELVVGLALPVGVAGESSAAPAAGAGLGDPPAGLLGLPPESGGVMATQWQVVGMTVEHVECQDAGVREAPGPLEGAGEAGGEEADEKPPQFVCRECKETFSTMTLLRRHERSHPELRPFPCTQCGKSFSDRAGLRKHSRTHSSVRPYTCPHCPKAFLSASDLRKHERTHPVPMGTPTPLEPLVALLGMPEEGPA
UniProt Q96BR6: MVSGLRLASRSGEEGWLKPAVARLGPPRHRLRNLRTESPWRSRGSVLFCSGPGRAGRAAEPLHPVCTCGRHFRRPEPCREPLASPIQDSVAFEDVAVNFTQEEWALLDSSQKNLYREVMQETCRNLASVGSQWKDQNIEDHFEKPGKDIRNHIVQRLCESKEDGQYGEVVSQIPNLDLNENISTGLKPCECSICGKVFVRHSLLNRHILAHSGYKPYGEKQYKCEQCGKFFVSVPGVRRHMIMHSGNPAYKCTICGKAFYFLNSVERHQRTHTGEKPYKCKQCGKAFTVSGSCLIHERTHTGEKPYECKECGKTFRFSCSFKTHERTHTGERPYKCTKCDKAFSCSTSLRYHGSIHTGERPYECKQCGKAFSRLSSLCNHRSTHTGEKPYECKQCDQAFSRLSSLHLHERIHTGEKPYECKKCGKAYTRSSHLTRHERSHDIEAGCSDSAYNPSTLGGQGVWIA
UniProt Q9UL40: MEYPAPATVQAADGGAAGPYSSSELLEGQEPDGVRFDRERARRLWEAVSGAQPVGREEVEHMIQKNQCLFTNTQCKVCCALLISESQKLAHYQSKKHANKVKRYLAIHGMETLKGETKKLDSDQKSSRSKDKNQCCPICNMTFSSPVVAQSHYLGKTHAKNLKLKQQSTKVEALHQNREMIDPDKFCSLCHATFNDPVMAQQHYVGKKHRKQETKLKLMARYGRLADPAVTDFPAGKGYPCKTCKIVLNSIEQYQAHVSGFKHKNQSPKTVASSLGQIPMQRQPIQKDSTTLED
UniProt Q6ZN55: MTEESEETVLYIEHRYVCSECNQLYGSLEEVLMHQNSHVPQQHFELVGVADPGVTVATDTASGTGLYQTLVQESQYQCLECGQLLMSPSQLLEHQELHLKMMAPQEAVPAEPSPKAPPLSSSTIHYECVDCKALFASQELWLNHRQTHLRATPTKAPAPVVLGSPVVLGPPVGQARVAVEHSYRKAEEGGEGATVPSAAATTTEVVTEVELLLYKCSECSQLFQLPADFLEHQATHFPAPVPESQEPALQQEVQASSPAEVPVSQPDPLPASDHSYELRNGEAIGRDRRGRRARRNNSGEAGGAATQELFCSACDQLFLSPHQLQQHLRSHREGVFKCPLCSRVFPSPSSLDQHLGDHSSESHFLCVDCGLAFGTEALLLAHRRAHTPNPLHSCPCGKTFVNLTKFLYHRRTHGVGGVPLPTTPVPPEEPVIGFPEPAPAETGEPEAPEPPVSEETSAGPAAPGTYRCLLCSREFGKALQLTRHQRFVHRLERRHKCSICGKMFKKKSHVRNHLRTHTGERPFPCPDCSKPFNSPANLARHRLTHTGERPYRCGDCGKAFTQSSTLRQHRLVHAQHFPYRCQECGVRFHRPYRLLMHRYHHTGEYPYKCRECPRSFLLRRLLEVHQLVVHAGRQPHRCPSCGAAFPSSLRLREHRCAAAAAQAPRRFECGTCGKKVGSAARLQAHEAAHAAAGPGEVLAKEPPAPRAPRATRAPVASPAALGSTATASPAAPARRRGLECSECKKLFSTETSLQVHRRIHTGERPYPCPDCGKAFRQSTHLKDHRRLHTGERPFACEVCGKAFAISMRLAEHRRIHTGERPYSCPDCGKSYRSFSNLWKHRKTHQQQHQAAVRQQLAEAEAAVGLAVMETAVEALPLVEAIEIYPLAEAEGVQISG

The targets below were run with CCCS(=O)(=O)Nc1ccc(F)c(C(=O)c2c[nH]c3ncc(-c4ccc(Cl)cc4)cc23)c1F [vemurafenib] (assay: log2 fold change, soluble protein after heating vs DMSO (PISA); higher = thermal stabilisation; K562 lysate, 10 uM; active = over 0.2 and 3.5 SD of the protein, either way, in both replicates (recomputed)).
In short: (§1)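 K562 pellets were dounce-homogenised in PBS pH 7.4 containing 1 mM MgCl2, and the crude extract, at 1 mg/mL protein, was exposed to 10 μM compound for 30 min. Aliquots were heated for 3 min across 48°C-58°C, pooled, brought to 0.5% NP-40 at 4°C and spun at 21,000xg for 90 min, with the supernatant taken as soluble protein. TMTpro 16plex LC-MS/MS with equalised channel sums quantified that protein. Values are log-two fold changes in thermal stability relative to solvent controls, taken from duplicates.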

log2 fold change, inactive:
ZNF76 (UniProt P36508) -0.073
ZNF460 (UniProt Q14592) -0.024
ZNF639 (UniProt Q9UID6) -0.051
ZNF280B (UniProt Q86YH2) -0.061
ZSWIM7 (UniProt Q19AV6) 0.021
ZNF595 (UniProt Q8IYB9) 0.024
ZNF445 (UniProt P59923) -0.019
ZNF326 (UniProt Q5BKZ1) 0.053
ZNF655 isoform 2 (UniProt Q8N720) -0.129
ZNF77 (UniProt Q15935) 0.109
ZNF525 (UniProt J3KR51) 0.105
ZNF708 (UniProt P17019) -0.175
ZNF692 isoform 5 (UniProt Q9BU19) 0.037
ZMYM5 (UniProt Q9UJ78) 0.102
ZNF8 (UniProt P17098) -0.071

2 entries picked at random from the list so far, as already listed:
log2 fold change, inactive:
ZNF639 (UniProt Q9UID6) -0.051
ZNF76 (UniProt P36508) -0.073

What follows are targets tested with CCCS(=O)(=O)Nc1ccc(F)c(C(=O)c2c[nH]c3ncc(Cl)cc23)c1F in the same assay as above.
In short: as §1

log2 fold change, inactive:
ZNF800 (UniProt Q2TB10) 0.102
ZNF785 (UniProt A8K8V0) 0.035
ZNF101 (UniProt Q8IZC7) 0.063
ZNF48 (UniProt Q96MX3) -0.024
ZNF74 isoform 5 (UniProt Q16587) 0.157
ZNF687 (UniProt Q8N1G0) 0.183
ZNF512B (UniProt Q96KM6) -0.015
ZNF771 (UniProt Q7L3S4) -0.09
ZYG11A (UniProt Q6WRX3) -0.15
ZNF668 isoform 2 (UniProt Q96K58) 0.013
ZNF669 (UniProt Q96BR6) -0.157
ZNF358 (UniProt Q9NW07) 0.052
ZNF592 (UniProt Q92610) 0.103
ZNF346 (UniProt Q9UL40) 0.007
ZNF324 (UniProt O75467) 0.058
ZNF384 (UniProt Q8TF68) 0.098
ZNF280D (UniProt Q6N043) 0.199
ZNF574 isoform 2 (UniProt Q6ZN55) -0.031
ZNF654, A0A1B0GWA0 -0.056
